{
  "source": "paper PMC8071052",
  "key": {"[1]": {"biological_target": "T1, ADA2b (alteration/deficiency in activation-2b) transcriptional adaptor, Arabidopsis thaliana (Arabidopsis thaliana) (UniProt Q9ATB4)", "T1 sequence": "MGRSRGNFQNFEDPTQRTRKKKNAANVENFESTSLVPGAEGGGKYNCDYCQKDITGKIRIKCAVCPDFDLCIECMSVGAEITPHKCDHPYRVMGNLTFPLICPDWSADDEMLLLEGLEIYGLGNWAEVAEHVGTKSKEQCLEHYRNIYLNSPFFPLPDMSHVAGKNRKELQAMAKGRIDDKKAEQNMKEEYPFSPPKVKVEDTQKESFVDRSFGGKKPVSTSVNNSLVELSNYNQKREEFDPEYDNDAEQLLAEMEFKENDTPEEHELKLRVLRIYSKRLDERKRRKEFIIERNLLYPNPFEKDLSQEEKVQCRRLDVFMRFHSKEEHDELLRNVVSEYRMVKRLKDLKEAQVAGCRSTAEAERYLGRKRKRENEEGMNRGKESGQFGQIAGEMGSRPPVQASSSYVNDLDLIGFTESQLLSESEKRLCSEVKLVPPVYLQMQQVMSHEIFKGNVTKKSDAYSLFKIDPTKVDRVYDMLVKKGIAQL", "assay": "two-hybrid; Matchmaker Gold System; baits in pGBKT7 in yeast AH109, preys in pGADT7 in Y187; tenfold serial dilutions plated on high stringency media, 5 days at 30 °C; empty pGBKT7 as negative control"}, "[2]": {"biological_target": "T2, SGF11, Arabidopsis thaliana (Arabidopsis thaliana) (UniProt Q94BV2)", "T2 sequence": "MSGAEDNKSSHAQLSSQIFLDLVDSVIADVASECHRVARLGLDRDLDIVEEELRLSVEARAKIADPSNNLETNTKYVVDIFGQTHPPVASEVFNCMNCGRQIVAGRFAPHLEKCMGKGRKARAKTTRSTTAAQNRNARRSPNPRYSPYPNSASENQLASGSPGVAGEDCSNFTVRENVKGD", "assay": "two-hybrid; Matchmaker Gold System; baits in pGBKT7 in yeast AH109, preys in pGADT7 in Y187; tenfold serial dilutions plated on high stringency media, 5 days at 30 °C; empty pGBKT7 as negative control"}},
  "note": "These are yes or no findings as the source states them, for the method shown.",
  "data": [
    {"substance": "ADA3a (alteration/deficiency in activation-3a), Arabidopsis thaliana (from UniProt O64572)", "values": [
      {"measurement": "binding", "setting": "[1]", "result": "no binding"},
      {"measurement": "binding", "setting": "[2]", "result": "no binding"}
    ]}
  ]
}
